Laboratory results reported in PubChem BioAssay AID445 (National Center for Advancing Translational Sciences (NCATS), 2006).
This is one part of the list. These are further read-outs of the screen, such as a control signal, another cell line or another target. No call is given for them. Most of these compounds were active or inconclusive in the main read-out, so they are no random draw. The note in brackets gives the kind of curve behind each potency; many fits are weak.

Test: IkB Signaling
Settings: ABC-DLBCL IkBa-CBG/CBR dual luciferase ratio (green luciferase fused to IkBa over red control in OCI-Ly3 lymphoma cells), 4 h
How it was run: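 Curves were fitted separately to fusion (green), unfused (red) and ratio luminescence, then classed by r2, magnitude and activity. Cells: OCI-Ly3, 4 h compound plus doxycycline at 37C; 10 uM MG-132 defined full response.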

[1] = measured here: control luc red channel unless noted
[2] = measured here: IkB-luc green channel
[3] = measured here: control luc red channel

Q: For `COc1ccc(CNC(=O)c2ccc(CNS(=O)(=O)c3ccc(OC)cc3)cc2)cc1`, which AC50 [1] is on record?
A: 1 µM [falling, partial curve]

Q: For `COc1cccc(NC(=O)c2ccc3c(=O)n4nc(Nc5ccccc5OC)sc4nc3c2)c1`, which AC50 [1] is on record?
A: 15.8 µM [falling, partial curve]

Q: With `Cc1ccc(-c2csc3nnc(SCC(=O)NCc4ccc5c(c4)OCO5)n23)cc1` as the compound, how does the AC50 [1] read?
A: 12.6 µM [falling, partial curve]

Q: For `CCOC(=O)c1ccc(NC(=O)CC2Nc3cc(C)c(C)cc3NC2=O)cc1` (stereo not drawn), which AC50 [1] is on record?
A: 31.6 µM [falling, partial curve]

Q: Which AC50 [1] does the source give for `COc1ccc(-c2cn3nc(SCC(=O)Nc4ccccc4F)ccc3n2)cc1` here?
A: 20 µM [falling, partial curve, poor fit]

Q: For `O=c1ccnc(S/C=C/c2ccccc2)[nH]1`, which AC50 [1] is on record?
A: 7.94 µM [falling, partial curve]

Q: With `COc1ccc(S(=O)(=O)N(CC(=O)NCCSc2ccccc2)c2ccc(Cl)cc2)cc1` as the compound, how does the AC50 [1] read?
A: 10 µM [falling, partial curve]

Q: For `Cc1cccc(OCC(=O)Nc2cccc(C(=O)OCc3cc(=O)n4c(C)csc4n3)c2)c1`, which AC50 [1] is on record?
A: 2.51 µM [falling, full curve]

Q: For `Cc1ccc2nc(NC(=O)c3ccc(Cn4cc(Cl)cn4)o3)sc2c1`, which AC50 [1] is on record?
A: 20 µM [falling, partial curve]

Q: For `CCc1cccc(N2C(=O)CSC23C(=O)N(Cc2ccccc2F)c2ccccc23)c1` (stereo not drawn), which AC50 [1] is on record?
A: 25.1 µM [falling, partial curve]

Q: Which AC50 [1] does the source give for `Cc1nc2c(-c3ccccc3)c(C)[nH]n2c(=O)c1Cl` here?
A: 15.8 µM [falling, partial curve]

Q: For `CCN(CC)c1ccc2cc(-c3nc(-c4ccccc4)no3)c(=O)oc2c1`, which AC50 [1] is on record?
A: 0.251 µM [falling, full curve]

Q: Which AC50 [1] does the source give for `O=C(NCc1cccc(Cl)c1)C1CCN(c2nn3cc(-c4ccc(F)cc4)nc3s2)CC1` here?
A: 0.0631 µM [falling, full curve, poor fit]

Q: With `CCCCNC(=O)c1cnn2c(C)c(Cc3c(C)cc(C)cc3C)c(C)nc12` as the compound, how does the AC50 [1] read?
A: 20 µM [falling, partial curve]

Q: With `COc1cc(NC(=O)Cn2c(=O)n(-c3ccccc3)c(=O)c3c4c(sc32)CCCC4)cc(OC)c1` as the compound, how does the AC50 [1] read?
A: 0.0631 µM [rising, full curve, poor fit]

Q: Which AC50 [1] does the source give for `CCOC(=O)c1cc2c(=O)n3ccccc3nc2n(Cc2ccco2)c1=NC(=O)c1ccc(OC)cc1` here?
A: 20 µM [falling, single point]

Q: Which AC50 [1] does the source give for `CSc1ccc(CNC(=O)c2ccc3c(c2)N(C)C(=O)C2CCCCN32)cc1` (stereo not drawn) here?
A: 3.98 µM [falling, full curve]

Q: For `CCOc1ccc(-n2nc(CO)c(C(=O)NCC(c3ccccc3)c3ccccc3)n2)cc1`, which AC50 [1] is on record?
A: 6.31 µM [rising, single point]

Q: With `COc1ccc(OCCSc2nnc3sc4ccccc4n23)cc1` as the compound, how does the AC50 [1] read?
A: 25.1 µM [falling, single point]

Q: With `O=c1ccc2cc(S(=O)(=O)NCc3ccc(Cl)cc3)ccc2[nH]1` as the compound, how does the AC50 [1] read?
A: 10 µM [falling, partial curve, poor fit]

Q: What does the source list for `CCOC(=O)CNC(=O)c1sc(NC(=O)c2ccccc2F)nc1C`?
A: AC50 [2]: 0.316 µM [falling, full curve]; AC50 [3]: 20 µM [falling, partial curve]

Q: Which AC50 [1] does the source give for `COc1cccc(-c2csc(N3CCN(CC(=O)Nc4ccc5c(c4)OCO5)CC3)n2)c1` here?
A: 15.8 µM [falling, partial curve]

Q: For `CCOc1ccc(NC(=O)c2ccc3nc(C(C)C)oc3c2)cc1`, which AC50 [1] is on record?
A: 15.8 µM [falling, partial curve, poor fit]

Q: For `COc1ccc(Cn2c(C(=O)O)c(CNCc3ccc(C)o3)c3ccc(OC)cc32)cc1`, which AC50 [1] is on record?
A: 12.6 µM [falling, partial curve]

Q: For `CCn1c(SCc2nc(-c3cccs3)no2)nnc1-c1c[nH]c2ccccc12`, which AC50 [1] is on record?
A: 25.1 µM [falling, partial curve]

Q: For `COc1ccccc1OC(C)C(=O)N1CCC(c2nc3ccccc3s2)CC1` (stereo not drawn), which AC50 [1] is on record?
A: 31.6 µM [falling, partial curve]

Q: For `CCOC(=O)c1csc(Nc2nc3ccc(F)cc3s2)n1`, which AC50 [1] is on record?
A: 631 nM [rising, full curve] [measured here: IkB-luc green channel]

Q: For `CCn1c(=N)c(C(=O)NC2CCCC2)cc2c(=O)n3cc(C)ccc3nc21`, which AC50 [1] is on record?
A: 0.0501 µM [rising, full curve, poor fit]

Q: Which AC50 [1] does the source give for `CCn1c(CSc2nc3ccccc3s2)nnc1SCC(=O)c1ccc2c(c1)OCCO2` here?
A: 31.6 µM [falling, partial curve]

Q: Which AC50 [1] does the source give for `Cc1ccc(NC(=O)C2CCCN(S(=O)(=O)c3cccc4nsnc34)C2)c(C)c1` (stereo not drawn) here?
A: 20 µM [falling, single point]

Q: Which AC50 [1] does the source give for `CCOc1ccc(C(=O)NCCc2csc(-c3cccnc3)n2)cc1` here?
A: 39.8 µM [falling, single point]

Q: Which AC50 [1] does the source give for `CCN(CC)S(=O)(=O)c1ccc2c(c1)N(CC(=O)NCCCN1CCN(c3cc(C)ccc3C)CC1)C(=O)CO2` here?
A: 12.6 µM [falling, partial curve]

Q: With `CN1CCN(C2(CNC(=O)COc3ccc(C(C)(C)C)cc3)CCCCC2)CC1` as the compound, how does the AC50 [1] read?
A: 3.98 µM [falling, partial curve]

Q: For `O=C(Cn1c(=O)n(-c2ccc(F)c(Cl)c2)c(=O)c2sc3ccccc3c21)NC1CCCCC1`, which AC50 [1] is on record?
A: 20 µM [falling, partial curve]

Q: With `CCC(C)S(=O)(=O)c1oc(-c2ccc(F)cc2)nc1S(=O)(=O)c1ccc(F)cc1` (stereo not drawn) as the compound, how does the AC50 [1] read?
A: 3.98 µM [falling, partial curve]

Q: For `COc1ccc(CNc2ncnc3ccc(-c4c(C)noc4C)cc23)c(OC)c1`, which AC50 [1] is on record?
A: 1.26 µM [rising, partial curve] [measured here: IkB-luc green channel]

Q: With `OC(CNCc1ccco1)Cn1c2ccccc2c2ccccc21` (stereo not drawn) as the compound, how does the AC50 [1] read?
A: 25.1 µM [falling, partial curve]

Q: With `CCOc1ccc(-n2nc3ccc(NC(=O)COc4ccccc4)cc3n2)cc1` as the compound, how does the AC50 [1] read?
A: 1 µM [rising, full curve, poor fit]

Q: For `CC(C)Oc1ccc(CNC(=O)c2ccc3c(c2)N(C)C(=O)C2CCCCN32)cc1` (stereo not drawn), which AC50 [1] is on record?
A: 10 µM [falling, partial curve]

Q: For `Cc1nn(-c2nnc(C)c(=O)[nH]2)c(C)c1SCC(=O)Nc1ccc(F)cc1`, which AC50 [1] is on record?
A: 5.01 µM [falling, partial curve]

Q: Which AC50 [1] does the source give for `Cc1ccc(N2CC(NC(=O)C3CCCC3)CC2=O)cc1C` (stereo not drawn) here?
A: 6.31 µM [falling, single point]

Q: Which AC50 [1] does the source give for `O=C(COc1ccccc1Cl)Nc1nc(-c2ccc(F)cc2)ns1` here?
A: 39.8 µM [falling, single point]

Q: With `CCN1CCN(c2cc(C)c3cc(NC(=O)/C=C/c4ccc(OCCC(C)C)cc4)ccc3n2)CC1` as the compound, how does the AC50 [1] read?
A: 15.8 µM [falling, partial curve]

Q: For `O=C(CSc1nccn1-c1ccc(F)cc1)Nc1cccc2ccccc12`, which AC50 [1] is on record?
A: 15.8 µM [falling, partial curve]

Q: With `CCc1nnc(SCc2nc(-c3cccc(C)c3)oc2C)c2cc3sc(C)cc3n12` as the compound, how does the AC50 [1] read?
A: 25.1 µM [falling, single point]

Q: Which AC50 [1] does the source give for `O=C(CCN1Cc2ccccc2C1)c1ccc2c(c1)OCCO2` here?
A: 7.94 µM [falling, partial curve]

Q: With `COc1ccc(CCNC(=O)Cc2ccc(NC(=O)N3CCSc4ncccc43)cc2)cc1OC` as the compound, how does the AC50 [1] read?
A: 25.1 µM [falling, single point]

Q: Which AC50 [1] does the source give for `Nc1nc(CSc2n[nH]c(-c3ccccc3)n2)nc(Nc2ccccc2)n1` here?
A: 12.6 µM [falling, partial curve]

Q: For `O=C(Cn1c(=O)n(Cc2ccc(F)cc2)c(=O)c2sc3ccccc3c21)Nc1ccc(F)cc1F`, which AC50 [1] is on record?
A: 10 µM [falling, partial curve, poor fit]

Q: For `CN(Cc1ccc(-n2cccn2)cc1)C(=O)c1cnn2c1NC(c1ccco1)CC2C(F)(F)F` (stereo not drawn), which AC50 [1] is on record?
A: 15.8 µM [falling, partial curve]

Q: With `COc1ccc(C(=O)N2CCN(c3nc4c(OC)cccc4s3)CC2)cc1OC` as the compound, how does the AC50 [1] read?
A: 39.8 µM [falling, single point]

Q: Which AC50 [1] does the source give for `COc1cccc(CNC(=O)Cn2cccc2C(=O)c2ccccc2)c1` here?
A: 39.8 µM [falling, single point]

Q: For `COc1ccc(-c2nc(-c3cccs3)c(-c3cccs3)[nH]2)cc1O`, which AC50 [1] is on record?
A: 15.8 µM [falling, partial curve]

Q: For `O=C(COc1ccccc1)Nc1nc2ccccc2[nH]1`, which AC50 [1] is on record?
A: 3.98 µM [falling, partial curve]

Q: For `CC(C)COc1ccc(C(=O)N(Cc2cccc(F)c2)C2CCS(=O)(=O)C2)cc1` (stereo not drawn), which AC50 [1] is on record?
A: 20 µM [falling, single point]

Q: For `CCOc1ccc(S(=O)(=O)NCc2cccn2Cc2cccc(C)c2)cc1`, which AC50 [1] is on record?
A: 15.8 µM [falling, partial curve, poor fit]

Q: For `CCc1cccc(C)c1NC(=O)C(NS(=O)(=O)c1ccc2c(c1)CCC(=O)N2)c1ccccc1` (stereo not drawn), which AC50 [1] is on record?
A: 6.31 µM [falling, partial curve]

Q: For `Cc1ccc(C)c(N2CCN(C(c3ccccc3)c3nnc(-c4ccccc4)o3)CC2)c1` (stereo not drawn), which AC50 [1] is on record?
A: 10 µM [falling, partial curve]

Q: Which AC50 [1] does the source give for `Cc1ccc(NS(=O)(=O)c2c(C)nc3sc(C)c(C)n3c2=O)cc1F` here?
A: 15.8 µM [falling, single point]

Q: With `COC(=O)c1cc2sc(Cl)cc2n1CC(=O)N1CCCc2ccccc21` as the compound, how does the AC50 [1] read?
A: 10 µM [falling, partial curve]
